The values below come from patent US20220221455A1 (GlaxoSmithKline, published 2022).

One assay addresses Laminin. Description: SPR (Biacore, CM-5 sensor chips).
The next assay has as its target Fibrinogen. Nature of the assay: SPR (Biacore, CM-5 sensor chips). (In general: SPR reads the build-up and loss of mass on a sensor chip optically.)

Results are given in words; binding and its absence hold for the method and conditions named.

B1: PilA (protein)
chain: TKKAAVSELLQASAPYKADVELCVYSTNETTNCTGGKNGIAADITTAKGYVKSVTTSNGAITVKGDGTLANMEYILQATGNAATGVTWTTTCKGTDASLFPANFCGSVTQ
Consider B1, for which the binding entry with Laminin and with Fibrinogen was “no binding” throughout.
